PubChem BioAssay AID652259, Drosophila RNAi Screening Center | 2013
The screen tested about 22,000 reagents; below is an unselected part of those that have a named target and a result. Over the whole deposit, 233 (1.1%) got an active call. 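Light values are raw, unnormalised plate reads; the ratio scores behind the reporter calls were not deposited.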 A number with no mark means an inactive call. The numbers tell different reagents against one gene apart. A plus sign joins genes that one reagent is predicted to hit. Not stated in the record: the amount of reagent, the time to read-out, the dose of the treatment.

Aim: 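Knock-downs that push a Wingless-driven reporter up or down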 (primary screen)
Cells: Drosophila clone 8 imaginal disc epithelial cells
Knock-down reagent: long dsRNA against Drosophila genes
Challenge: pathway stimulated by co-transfected Wingless expression plasmid
Measured: 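Firefly luciferase from a tcf-site Wingless reporter, measured alongside co-transfected Renilla luciferase that tracks transfection; pathway stimulated by a Wingless plasmid; the firefly-to-Renilla ratio is not deposited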
Reading the numbers: firefly reporter light: higher = more Wg reporter light, before normalisation; Renilla control light: higher = more transfected or surviving cells
Rule for the call: 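Strong candidates differ from their plate mean by at least two out of four per-plate statistical tests; weak candidates meet just one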
Meaning of the calls: active = candidate regulator (raises or lowers reporter); inactive = not a candidate

The first 6 records as a preview:
gene knocked down	reagent no.	reporter change call, replicate 1	firefly reporter light, replicate 1	firefly reporter light, replicate 2	Renilla control light, replicate 1	Renilla control light, replicate 2
CG42715 (retired record) (GeneID 10178969)	1		29270		19426	
rols (GeneID 39368)	1		6950		2224	
rols (GeneID 39368)	2		6100		2427	
rols (GeneID 39368)	3		5463		2163	
CG5768 (GeneID 42915)	1		2989	4907	1590	2003
Tsf2 (GeneID 39435)	1		2741		1303	

Main list, from the start:
gene knocked down	reagent no.	reporter change call, replicate 1	firefly reporter light, replicate 1	firefly reporter light, replicate 2	Renilla control light, replicate 1	Renilla control light, replicate 2
CG42715 (retired record) (GeneID 10178969)	1		29270		19426	
rols (GeneID 39368)	1		6950		2224	
rols (GeneID 39368)	2		6100		2427	
rols (GeneID 39368)	3		5463		2163	
CG5768 (GeneID 42915)	1		2989	4907	1590	2003
Tsf2 (GeneID 39435)	1		2741		1303	
mRpS9 (GeneID 40932)	1		3253		1508	
mRpS9 (GeneID 40932)	2		17805		4347	
Charon (GeneID 33303)	1		6884		3920	
CG4582 (GeneID 43086)	1		16201		13972	
CG31689 (GeneID 326154)	1		3225	7440	954	2201
CG13991 (GeneID 33868)	1		2482	5525	968	2352
sncRNA:430e + His2A:CG33859 + His2A:CG33817 + 37 more	1		20937		4422	
Dh44 (GeneID 41170)	1		4028		1845	
Dh44 (GeneID 41170)	2		14075		3627	
CG6409 (GeneID 39220)	1		9121		3777	
CG6409 (GeneID 39220)	2		6.67e5	6.56e5	3.21e5	3.25e5
E(bx) (GeneID 44811)	1		4160		2400	
E(bx) (GeneID 44811)	2		5824		2024	
E(bx) (GeneID 44811)	3		12205		2512	
gammaTub37C (GeneID 35199)	1		8544		2205	
CG15253 (GeneID 34916)	1		2875	7888	1436	3339
betaNACtes6 (GeneID 318107)	1		7.66e5	8.42e5	1.71e5	1.26e5
HIP + HIP-R	1		3812	9516	1424	3385
pen-2 (GeneID 251430)	1		20020		12295	
CG6830 (GeneID 41408)	1		13495		2872	
PK2-R2 (GeneID 41638)	1		8330		3408	
CG8534 (GeneID 41210)	1		22240		5720	
myd (GeneID 42303)	1	Wg reporter activity raised (active)	4189	6152	345	736
myd (GeneID 42303)	2		14112		1469	
bug (GeneID 36749)	1		8554		3315	
CG4998 (GeneID 39808)	1		6752		2441	
CG4998 (GeneID 39808)	2		5.68e5	5.26e5	2.47e5	1.37e5
Sgs8 (GeneID 39285)	1		5820		3824	
Sin1 (GeneID 36604)	1		13211		3084	
imd (GeneID 44339)	1		13323		4480	
CG42755 (retired record) (GeneID 10178886)	1		2232		985	
CG42755 (retired record) (GeneID 10178886)	2		3008		1516	
CG17801 (GeneID 42144)	1		19985		4746	
Polr2F (GeneID 48312)	1		20696		3296	
betaCOP (GeneID 32820)	1		2969	6736	832	2082
CG14422 (GeneID 31286)	1		22135		21266	
icln (GeneID 36997)	1		5403		1882	
CG14892 (GeneID 42016)	1		12343		3244	
Ufc1 (GeneID 36762)	1		11719		3729	
CG14186 (GeneID 40196)	1		3136		1275	
gdrd (GeneID 39599)	1		4008		1946	
CG8172 (GeneID 35905)	1		4487	8849	1769	5229
CG8172 (GeneID 35905)	2		6.91e5	6.95e5	2.46e5	2.47e5
